The text below walks through data of article PMC6344529.

Sequences of proteins named here, by UniProt entry; tags and fusion partners are left off. A change or cut given only in a name is not applied to a line headed by its entry.
UniProt Q3UFQ8: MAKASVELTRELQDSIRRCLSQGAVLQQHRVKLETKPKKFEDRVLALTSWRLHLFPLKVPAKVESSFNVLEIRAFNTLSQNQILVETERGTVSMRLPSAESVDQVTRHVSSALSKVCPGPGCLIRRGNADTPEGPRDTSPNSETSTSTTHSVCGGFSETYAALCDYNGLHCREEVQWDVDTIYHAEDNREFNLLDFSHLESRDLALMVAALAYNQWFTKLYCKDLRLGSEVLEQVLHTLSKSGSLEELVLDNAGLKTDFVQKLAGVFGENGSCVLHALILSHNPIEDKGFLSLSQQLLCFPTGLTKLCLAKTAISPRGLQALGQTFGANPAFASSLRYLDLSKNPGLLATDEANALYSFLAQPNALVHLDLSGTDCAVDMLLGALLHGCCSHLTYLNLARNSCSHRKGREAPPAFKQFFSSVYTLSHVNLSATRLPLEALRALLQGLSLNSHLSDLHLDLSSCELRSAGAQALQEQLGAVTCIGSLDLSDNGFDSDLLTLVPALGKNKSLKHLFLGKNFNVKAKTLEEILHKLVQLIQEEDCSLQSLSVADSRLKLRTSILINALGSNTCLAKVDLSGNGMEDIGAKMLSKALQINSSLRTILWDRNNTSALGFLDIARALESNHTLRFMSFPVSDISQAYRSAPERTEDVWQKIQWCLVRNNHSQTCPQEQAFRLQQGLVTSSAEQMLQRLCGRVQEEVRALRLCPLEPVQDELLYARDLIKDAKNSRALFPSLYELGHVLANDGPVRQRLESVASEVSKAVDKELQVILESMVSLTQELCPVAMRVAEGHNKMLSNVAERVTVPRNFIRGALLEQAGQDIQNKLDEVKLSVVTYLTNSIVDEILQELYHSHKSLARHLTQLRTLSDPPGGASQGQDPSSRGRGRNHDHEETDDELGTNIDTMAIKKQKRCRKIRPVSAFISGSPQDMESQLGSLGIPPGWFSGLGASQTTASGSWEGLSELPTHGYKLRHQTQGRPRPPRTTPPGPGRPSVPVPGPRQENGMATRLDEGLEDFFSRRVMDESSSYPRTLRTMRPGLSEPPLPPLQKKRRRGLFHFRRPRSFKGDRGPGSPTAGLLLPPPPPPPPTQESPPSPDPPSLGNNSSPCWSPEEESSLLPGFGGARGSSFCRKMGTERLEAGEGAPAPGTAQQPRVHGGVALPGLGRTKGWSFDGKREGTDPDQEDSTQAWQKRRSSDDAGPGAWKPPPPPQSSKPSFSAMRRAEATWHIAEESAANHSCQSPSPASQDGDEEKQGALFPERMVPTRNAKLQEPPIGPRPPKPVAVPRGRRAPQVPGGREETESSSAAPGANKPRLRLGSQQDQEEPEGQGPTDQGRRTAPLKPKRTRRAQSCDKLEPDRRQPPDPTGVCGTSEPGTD
UniProt Q812A2: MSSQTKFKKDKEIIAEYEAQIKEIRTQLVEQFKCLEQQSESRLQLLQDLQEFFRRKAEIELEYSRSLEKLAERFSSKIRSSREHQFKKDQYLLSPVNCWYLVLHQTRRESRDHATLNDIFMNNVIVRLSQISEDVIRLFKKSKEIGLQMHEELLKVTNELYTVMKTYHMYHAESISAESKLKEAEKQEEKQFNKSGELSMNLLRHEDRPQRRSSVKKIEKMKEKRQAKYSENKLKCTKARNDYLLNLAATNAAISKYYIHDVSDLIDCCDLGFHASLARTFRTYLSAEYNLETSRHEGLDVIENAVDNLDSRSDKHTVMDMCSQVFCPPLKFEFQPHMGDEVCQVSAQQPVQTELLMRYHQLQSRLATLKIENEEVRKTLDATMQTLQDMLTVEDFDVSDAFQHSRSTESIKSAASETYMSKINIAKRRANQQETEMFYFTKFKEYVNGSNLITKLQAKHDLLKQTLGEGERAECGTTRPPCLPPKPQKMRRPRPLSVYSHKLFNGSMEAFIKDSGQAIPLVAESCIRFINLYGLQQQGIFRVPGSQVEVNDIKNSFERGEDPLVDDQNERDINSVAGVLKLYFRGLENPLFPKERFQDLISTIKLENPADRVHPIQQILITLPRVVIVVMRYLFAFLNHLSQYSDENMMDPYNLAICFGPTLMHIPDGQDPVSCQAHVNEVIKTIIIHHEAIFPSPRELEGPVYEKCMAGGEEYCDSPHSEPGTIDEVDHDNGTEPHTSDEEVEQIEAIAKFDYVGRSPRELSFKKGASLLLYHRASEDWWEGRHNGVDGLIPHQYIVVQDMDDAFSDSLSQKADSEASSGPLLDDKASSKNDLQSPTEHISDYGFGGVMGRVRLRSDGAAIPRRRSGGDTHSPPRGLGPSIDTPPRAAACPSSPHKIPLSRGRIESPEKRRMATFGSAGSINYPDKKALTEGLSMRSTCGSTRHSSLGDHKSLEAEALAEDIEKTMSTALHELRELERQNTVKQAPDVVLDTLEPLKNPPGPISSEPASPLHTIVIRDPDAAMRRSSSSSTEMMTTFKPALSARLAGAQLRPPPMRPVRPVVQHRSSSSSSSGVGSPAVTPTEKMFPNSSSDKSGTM

Results are given in words; binding and its absence hold for the method and conditions named. In cells and extracts the contact can be indirect. For some assays here: Binding calls can cover weak binding; strength is not graded here.

Test [1] deals with HA epitope tagged CARMIL3 with a deletion of the CP-binding region (UniProt Q3UFQ8). The test is described as follows: co-IP; HEK293T cells co-transfected with HA-CARMIL3 constructs, Wrp constructs and CAPZB2-TwinStrepII; lysis in 25 mM HEPES, 150 mM NaCl, 0.5% Triton X-100, 1 mM EDTA; anti-HA beads overnight; blots with anti-HA, anti-V5, anti-capping protein beta.
In test [2] the target is HA epitope tagged CARMIL3 lacking the predicted Wrp-binding site (UniProt Q3UFQ8). Described as above.

As for “V5-epitope tagged Wrp (full-length) (from UniProt Q812A2 1-1099)”, the binding result in test [1] is recorded as “binds”; in test [2], “no binding”.
